IC50 data for one compound are collected here from ChEMBL document CHEMBL1140569, “Synthesis and structure-activity relationships of thieno[2,3-b]pyrroles as antagonists of the GnRH receptor” (Bioorg Med Chem Lett, 2007).

The chains behind the UniProt entries cited, without tags or fusion partners.
UniProt P08684, whole entry: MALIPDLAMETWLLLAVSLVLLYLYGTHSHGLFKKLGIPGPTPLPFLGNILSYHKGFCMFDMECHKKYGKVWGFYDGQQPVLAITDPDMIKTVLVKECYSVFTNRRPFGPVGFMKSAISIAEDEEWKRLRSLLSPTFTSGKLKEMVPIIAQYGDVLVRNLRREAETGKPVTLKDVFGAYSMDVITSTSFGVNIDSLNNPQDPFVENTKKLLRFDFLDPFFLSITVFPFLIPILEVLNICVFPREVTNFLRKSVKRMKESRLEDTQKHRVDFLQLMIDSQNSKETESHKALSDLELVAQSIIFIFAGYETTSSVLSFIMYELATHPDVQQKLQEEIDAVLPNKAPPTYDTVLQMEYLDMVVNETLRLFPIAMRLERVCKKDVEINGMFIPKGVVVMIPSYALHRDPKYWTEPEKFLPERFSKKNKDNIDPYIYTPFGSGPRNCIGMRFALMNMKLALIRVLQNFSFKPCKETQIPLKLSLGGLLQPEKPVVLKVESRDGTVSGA

By IC50 is commonly meant the point on the concentration scale where inhibition reaches its midpoint. Low readings indicate greater potency in that assay, high ones weaker potency in that assay.

The assay deals with Cytochrome P450 3A4 (Homo sapiens, UniProt P08684). Nature of the assay: Inhibition of human CYP3A4.

Regarding `Cc1cc(C)cc(-c2[nH]c3sc(C(C)(C)C(=O)N4C5CCC4CC5)cc3c2CCN2CCN(CC(=O)N3CCOCC3)CC2)c1`, 100 nM corresponded to half-maximal inhibition (IC50).
